Reference: article PMC3929693
Results are given in words; binding and its absence hold for the method and conditions named. Binding seen in cells or lysates may run through a third protein. Some entries that bind do so weakly or less than the wild type. Tags and fused reporters may be left off the sequences shown.

Amino acid sequences for entries named in this document (tags omitted).
UniProt Q13546: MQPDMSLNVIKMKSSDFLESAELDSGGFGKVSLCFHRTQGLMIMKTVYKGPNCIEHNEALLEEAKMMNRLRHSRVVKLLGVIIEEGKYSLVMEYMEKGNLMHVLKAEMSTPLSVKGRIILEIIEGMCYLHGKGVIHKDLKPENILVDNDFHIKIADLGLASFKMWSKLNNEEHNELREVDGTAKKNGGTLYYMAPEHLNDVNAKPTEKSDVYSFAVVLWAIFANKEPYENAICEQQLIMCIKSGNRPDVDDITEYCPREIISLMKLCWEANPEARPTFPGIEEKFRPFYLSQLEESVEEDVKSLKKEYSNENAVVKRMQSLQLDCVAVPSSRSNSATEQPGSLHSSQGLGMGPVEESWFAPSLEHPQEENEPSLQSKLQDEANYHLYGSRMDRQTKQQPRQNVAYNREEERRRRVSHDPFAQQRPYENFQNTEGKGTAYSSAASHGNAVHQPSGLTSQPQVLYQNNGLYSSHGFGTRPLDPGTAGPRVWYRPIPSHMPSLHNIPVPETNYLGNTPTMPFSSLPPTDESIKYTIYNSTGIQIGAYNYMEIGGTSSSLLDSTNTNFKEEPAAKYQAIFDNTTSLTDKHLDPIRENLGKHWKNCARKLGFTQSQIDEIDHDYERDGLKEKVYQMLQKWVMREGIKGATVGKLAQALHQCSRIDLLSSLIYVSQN

T1: Flag-tagged EVER2 (human) (UniProt Q8IU68)
T1 sequence: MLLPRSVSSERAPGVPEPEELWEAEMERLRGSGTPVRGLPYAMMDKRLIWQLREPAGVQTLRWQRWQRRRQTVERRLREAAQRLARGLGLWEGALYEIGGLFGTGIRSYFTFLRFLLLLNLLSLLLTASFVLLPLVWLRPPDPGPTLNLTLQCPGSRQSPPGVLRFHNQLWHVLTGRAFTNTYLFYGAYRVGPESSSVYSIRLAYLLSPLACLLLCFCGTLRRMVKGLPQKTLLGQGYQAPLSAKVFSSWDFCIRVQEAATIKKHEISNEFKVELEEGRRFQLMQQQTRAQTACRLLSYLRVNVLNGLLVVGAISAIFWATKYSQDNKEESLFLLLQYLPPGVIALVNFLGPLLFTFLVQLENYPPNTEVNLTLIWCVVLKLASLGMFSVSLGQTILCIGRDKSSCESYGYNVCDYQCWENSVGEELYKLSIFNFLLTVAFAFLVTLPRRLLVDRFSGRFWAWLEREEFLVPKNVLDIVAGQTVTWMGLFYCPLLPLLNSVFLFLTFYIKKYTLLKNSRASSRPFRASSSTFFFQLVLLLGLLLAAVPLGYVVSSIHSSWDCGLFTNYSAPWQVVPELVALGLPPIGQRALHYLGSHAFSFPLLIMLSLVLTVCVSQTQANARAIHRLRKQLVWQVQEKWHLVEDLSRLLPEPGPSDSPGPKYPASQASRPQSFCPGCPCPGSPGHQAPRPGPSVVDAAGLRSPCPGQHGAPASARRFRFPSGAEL

B1: Gluc2-tagged TRAF1 (protein, UniProt Q13077 1-416)
chain: MASSSGSSPRPAPDENEFPFGCPPTVCQDPKEPRALCCAGCLSENPRNGEDQICPKCRGEDLQSISPGSRLRTQEKAHPEVAEAGIGCPFAGVGCSFKGSPQSVQEHEVTSQTSHLNLLLGFMKQWKARLGCGLESGPMALEQNLSDLQLQAAVEVAGDLEVDCYRAPCSESQEELALQHFMKEKLLAELEGKLRVFENIVAVLNKEVEASHLALATSIHQSQLDRERILSLEQRVVELQQTLAQKDQALGKLEQSLRLMEEASFDGTFLWKITNVTRRCHESACGRTVSLFSPAFYTAKYGYKLCLRLYLNGDGTGKRTHLSLFIVIMRGEYDALLPWPFRNKVTFMLLDQNNREHAIDAFRPDLSSASFQRPQSETNVASGCPLFFPLSKLQSPKHAYVKDDTMFLKCIVETST

Molecular target: T1, Flag-tagged EVER2 (human)
Assay: co-IP; HEK-293T cells co-transfected with Flag-EVER2 and Gluc2-tagged proteins; crude lysates (50 mM Tris pH 7.5, 150 mM NaCl, 1 mM EDTA, 0.5% NP40, 0.25% DOC) immunoprecipitated with anti-Flag antibody overnight at 4°C, protein G/protein A-agarose, immunoblot

Row | Molecule | binding
1 | Gluc2-tagged receptor-interacting serine/threonine-protein kinase 1 (RIPK1) (from UniProt Q13546 1-671) | no binding
2 | B1 | binds
